In patent US20260200974A1, “PEPTIDE FOR CARTILAGE REGENERATION, AND USES THEREOF” (CAREGEN CO., LTD., priority 2022, published 2026):
Part of at least one peptide drawing is inferred or uncertain, most often the ends. Where a SMILES comes first, the peptide text is derived from it. Where no end group is shown, it is not given here.

Assays:
Type in all cases: cell-based, human
[1] = test system: adipose-derived mesenchymal stem cells (AD-MSC); test: mRNA expression of ECM regulatory factor SOX9 (PCR); conditions: after 3, 7 and 14 days, FIG. 9, FIG. 10
[2] = test system: adipose-derived mesenchymal stem cells (AD-MSC); test: mRNA expression of ECM components (PCR); conditions: after 3, 7 and 14 days, FIG. 7, FIG. 8
[3] = test system: adipose-derived mesenchymal stem cells (AD-MSC); test: Activation of upstream activator of SOX9 (Smad 2/3, p-Smad 2/3 Western blot); conditions: after 15 minutes, Western blot Smad 2/3 and p-Smad 2/3, FIG. 15
[4] = test system: adipose-derived mesenchymal stem cells (AD-MSC); test: Expression of ECM regulatory factors SOX5, SOX6, SOX9 (Western blot); conditions: after 3, 7 and 14 days, FIG. 11, FIG. 12
[5] = test system: adipose-derived mesenchymal stem cells (AD-MSC); test: Expression of aggrecan and COL2A1 (Western blot); conditions: after 3, 7 and 14 days; for expression of COL2A1: FIG. 13, FIG. 14
[6] = test system: adipose-derived mesenchymal stem cells (AD-MSC); test: Glycosaminoglycan production, Alcian blue staining; conditions: 14 days, FIG. 5, FIG. 6

Row | Compound | production of SOX9, an ECM regulatory factor (mRNA) [1] | production of ECM component ACAN (mRNA) [2] | production of ECM component COL2A1 (mRNA) [2] | production of ECM component COL 11A (mRNA) [2] | production of ECM component COMP (mRNA) [2] | production of ECM component PCP (mRNA) [2] | activity of the upstream activator of SOX9 [3] | expression of ECM regulatory factor SOX5 [4] | expression of ECM regulatory factor SOX6 [4] | expression of ECM regulatory factor SOX9 [4] | expression of COL2A1 [5] | expression of aggrecan ([5]; FIG. 14) | production of glycosaminoglycan [6]
1 | CC(C)C[C@H](NC(=O)[C@@H](N)CCCNC(=N)N)C(=O)N[C@@H](CCCNC(=N)N)C(=O)N[C@@H](CO)C(=O)O [Peptide-2, RLRS] (H-RLRS-OH) | promoted the production | induced the production | induced the production | induced the production | induced the production | induced the production | induces the activity | increased the expression | increased the expression | increased the expression | increased the expression | increased the expression | increasing the production of glycosaminoglycan
2 | LYRYEEHHE [Peptide-1, LYRYEEHHE] | promoted the production | induced the production | induced the production | induced the production | induced the production | induced the production | – | increased the expression | increased the expression | increased the expression | increased the expression | – | increasing the production of glycosaminoglycan
